Reference: PubChem BioAssay AID1259405 (NCATS, 2018)

Assay: 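Mouse-designed siRNAs used to find CHO productivity engineering targets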 (primary screen)
System: Chinese hamster CHO-K1 ovary cells with stable secreted eGFP expression
Reagent: single siRNA against mouse genes, 0.8 pmol siRNA per well (2 µl of 400 nM stock)
Duration: 3 days
Detection: 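Percent of the per-plate non-targeting control median for intracellular GFP per well by laser scanning cytometry and for cell viability by ATP luminescence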
Reading the numbers: GFP, % of control: higher = more GFP per well, higher productivity; viability (ATP), % of control: higher = more viable cells (more ATP)
Hit rule: 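Called active when intracellular GFP, relative to negative control, is at or above 120%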
This is one part, drawn at random, of about 50,000 deposited reagents. About 4,000 of them (8%) count as active. 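Mouse siRNA library applied to hamster cells; one well for each siRNA.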 Reagents against one gene are numbered here. Reagent sequences are not shown.

The first 2 records as a preview:
{"Target gene":"Mfn1 (mitofusin 1)","reagent":1,"GFP, % of control":51.5,"viability (ATP), % of control":36,"Call":"inactive"}
{"Target gene":"Mfn1 (mitofusin 1)","reagent":2,"GFP, % of control":66.8,"viability (ATP), % of control":63.8,"Call":"inactive"}

Results, repeating the preview:
{"Target gene":"Mfn1 (mitofusin 1)","reagent":1,"GFP, % of control":51.5,"viability (ATP), % of control":36,"Call":"inactive"}
{"Target gene":"Mfn1 (mitofusin 1)","reagent":2,"GFP, % of control":66.8,"viability (ATP), % of control":63.8,"Call":"inactive"}
{"Target gene":"Mfn1 (mitofusin 1)","reagent":3,"GFP, % of control":51.4,"viability (ATP), % of control":74.7,"Call":"inactive"}
{"Target gene":"Slc29a1","reagent":1,"GFP, % of control":141,"viability (ATP), % of control":121,"Call":"active"}
{"Target gene":"Slc29a1","reagent":2,"GFP, % of control":87.5,"viability (ATP), % of control":77.5,"Call":"inactive"}
{"Target gene":"Slc29a1","reagent":3,"GFP, % of control":95.9,"viability (ATP), % of control":102,"Call":"inactive"}
{"Target gene":"Sdhaf4 (succinate dehydrogenase complex assembly factor 4)","reagent":1,"GFP, % of control":113,"viability (ATP), % of control":117,"Call":"inactive"}
{"Target gene":"Sdhaf4 (succinate dehydrogenase complex assembly factor 4)","reagent":2,"GFP, % of control":79.3,"viability (ATP), % of control":69.1,"Call":"inactive"}
{"Target gene":"Sdhaf4 (succinate dehydrogenase complex assembly factor 4)","reagent":3,"GFP, % of control":122,"viability (ATP), % of control":45.2,"Call":"active"}
{"Target gene":"Drd3 (dopamine receptor D3)","reagent":1,"GFP, % of control":38,"viability (ATP), % of control":39.9,"Call":"inactive"}
{"Target gene":"Drd3 (dopamine receptor D3)","reagent":2,"GFP, % of control":74.4,"viability (ATP), % of control":69.1,"Call":"inactive"}
{"Target gene":"Drd3 (dopamine receptor D3)","reagent":3,"GFP, % of control":71.5,"viability (ATP), % of control":72.4,"Call":"inactive"}
{"Target gene":"S100a13 (S100 calcium binding protein A13)","reagent":1,"GFP, % of control":70.1,"viability (ATP), % of control":66.3,"Call":"inactive"}
{"Target gene":"S100a13 (S100 calcium binding protein A13)","reagent":2,"GFP, % of control":21.2,"viability (ATP), % of control":35.1,"Call":"inactive"}
{"Target gene":"S100a13 (S100 calcium binding protein A13)","reagent":3,"GFP, % of control":84.4,"viability (ATP), % of control":84.7,"Call":"inactive"}
{"Target gene":"Or11h23 (olfactory receptor family 11 subfamily G member 23)","reagent":1,"GFP, % of control":117,"viability (ATP), % of control":61.4,"Call":"inactive"}
{"Target gene":"Or11h23 (olfactory receptor family 11 subfamily G member 23)","reagent":2,"GFP, % of control":55.9,"viability (ATP), % of control":53.6,"Call":"inactive"}
{"Target gene":"Or11h23 (olfactory receptor family 11 subfamily G member 23)","reagent":3,"GFP, % of control":34.4,"viability (ATP), % of control":40.2,"Call":"inactive"}
